{"source": "patent US9328059B2", "about": "“Pharmaceutical composition for preventing or treating autophagy-related diseases, angiogenic diseases or melanin-related diseases” (INDUSTRY-ACADEMIC COOPERATION FOUNDATION, YONSEI UNIVERSITY, priority 2010, dated 2016)", "test_system": "rat carotid artery", "experiment": "Inhibition of angiostenosis after balloon injury", "type": "in vivo", "conditions": "7 days", "protocol": "In order to verify effects for inhibiting angiostenosis by indatraline as autophagy-induced material in rat carotid artery, a balloon injury was created in the normal left rat carotid artery. After balloon injury, indatraline, rapamycin and DMSO (control group) were treated using catheter to observe angiostenosis. […] At 7 days after the injury, the carotid arteries were excised. Smooth muscle cells were stained with hematoxylin and eosin (H&E). Levels of angiostenosis were observed.\nAfter balloon injury, indatraline, rapamycin and DMSO (control group) were treated using catheter to observe angiostenosis. […] The ratio between intima area and media area was compared by observing tissue stenosed.", "note": "At least one structure is not confirmed: it was looked up by name or label, or the drawing left a doubt."}
{"smiles": "CO[C@H]1C[C@@H]2CC[C@@H](C)[C@@](O)(O2)C(=O)C(=O)N2CCCC[C@H]2C(=O)O[C@H]([C@H](C)C[C@@H]2CC[C@@H](O)[C@H](OC)C2)CC(=O)[C@H](C)/C=C(\\C)[C@@H](O)[C@@H](OC)C(=O)[C@H](C)C[C@H](C)/C=C/C=C/C=C/1C", "note": "[rapamycin, reference compound]", "values": [{"measurement": "angiostenosis", "value": "significantly inhibited"}, {"measurement": "proliferation of smooth muscle cells", "value": "inhibited"}]}
